PubChem BioAssay AID743454, Peter MacCallum Cancer Centre, 2014

Screen: 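Search for knock-downs that restore vorinostat killing in resistant colon cancer cells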 (primary screen)
Cell system: human HCT116-VR colon cancer cells, selected for vorinostat resistance
Reagents: siRNA pool against human genes, 40 nM siRNA pool
Time to read-out: vorinostat for 24 h, read-out about 72 h after transfection
Treatment: vorinostat at 2.5 µM final
Read-out: 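Cell viability by CellTiter-Fluor and caspase 3/7 activity by luminescence, each scaled to mock wells per plate, duplicates averaged, then robust z-scored over all plates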
Reading the numbers: viability robust z-score: higher = more viable cells than screen typical; caspase robust z-score: higher = more caspase 3/7 activity than screen typical
Call rule: 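Hits are knock-downs in viability class RV1/RV2 or caspase class CA1/CA2, excluding ones that killed cells in the no-drug cell-count arm; hits then retested with single siRNAs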
This is a random part of about 18,000 reagents tested. Over the whole deposit, 450 (2.5%) were called active. 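Single biological run; no consistent viability z cut-off exists, so the class columns, not z-scores, define the calls.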 A number with no mark means an inactive call.

no.	target gene	viability hit class	caspase hit class	viability robust z-score	caspase robust z-score
1	DNAJB1	no change	no change	-2.21	2.85
2	MRPS30	no change	no change	0.74	0.38
3	GREB1	no change	no change	-0.19	-0.1
4	DNAJC8	no change	no change	0.59	-0.26
5	CENPBD1P	no change	no change	0.01	-0.71
6	PLCD4	no change	no change	0.66	1.32
7	C2orf78	no change	no change	0.87	-0.12
8	KIF3C	no change	no change	0.32	-0.94
9	TRPM6	no change	no change	0.9	-1.15
10	SEPTIN11	no change	no change	-0.08	1.75
11	AKR1C1	no change	no change	-0.12	2.96
12	PRR7	no change	no change	0.13	3.32
13	CRIP2	no change	no change	1.38	0.67
14	MAT2B	no change	no change	-0.38	-0.07
15	DEFB103B	no change	no change	-1.03	0.02
16	CAV2	no change	no change	-0.42	1.42
17	BTD	no change	no change	1.83	-0.28
18	RAB37	no change	no change	0.31	0.22
19	DCPH1	no change	no change	0	1.54
20	DGLUCY	no change	no change	0.34	1.52
21	SLF2	no change	no change	-0.84	3.34
22	MYH7	no change	no change	-0.82	-0.36
23	UFD1	no change	no change	-1.16	0.68
24	METTL13	no change	no change	-0.31	0.12
25	NBPF8	no change	no change	0.15	-0.22
26	ELP3	no change	no change	-0.68	0.44
27	SNX32	no change	no change	0.2	1.02
28	LSM3	no change	no change	0.54	-0.78
29	KIZ	no change	no change	0.2	-1.23
30	HIPK4	no change	no change	-0.55	1.12
31	ACTL9	no change	no change	-1.17	1.15
32	CPLX3	no change	no change	0.03	-0.2
33	SCRN1	no change	no change	0.06	-0.77
34	CD300C	no change	no change	-1.4	1.08
35	GYG1	no change	no change	0.32	-0.24
36	RNF216	no change (active)	CA1 (caspase activation)	-1.71	7.5
37	RAB3GAP1	no change	no change	0.1	-0.68
38	EMX2	no change	no change	-1.86	1.36
39	C4orf46	no change	no change	0.62	2.67

Called active (from the list above):
target gene	viability hit class	caspase hit class	viability robust z-score	caspase robust z-score
RNF216	no change (active)	CA1 (caspase activation)	-1.71	7.5
